# From PubChem BioAssay AID1671190 (National Center for Advancing Translational Sciences (NCATS), 2021)
# By UniProt entry, the sequences of proteins in these tests, tags left out.
# UniProt P18054, whole entry, looked up: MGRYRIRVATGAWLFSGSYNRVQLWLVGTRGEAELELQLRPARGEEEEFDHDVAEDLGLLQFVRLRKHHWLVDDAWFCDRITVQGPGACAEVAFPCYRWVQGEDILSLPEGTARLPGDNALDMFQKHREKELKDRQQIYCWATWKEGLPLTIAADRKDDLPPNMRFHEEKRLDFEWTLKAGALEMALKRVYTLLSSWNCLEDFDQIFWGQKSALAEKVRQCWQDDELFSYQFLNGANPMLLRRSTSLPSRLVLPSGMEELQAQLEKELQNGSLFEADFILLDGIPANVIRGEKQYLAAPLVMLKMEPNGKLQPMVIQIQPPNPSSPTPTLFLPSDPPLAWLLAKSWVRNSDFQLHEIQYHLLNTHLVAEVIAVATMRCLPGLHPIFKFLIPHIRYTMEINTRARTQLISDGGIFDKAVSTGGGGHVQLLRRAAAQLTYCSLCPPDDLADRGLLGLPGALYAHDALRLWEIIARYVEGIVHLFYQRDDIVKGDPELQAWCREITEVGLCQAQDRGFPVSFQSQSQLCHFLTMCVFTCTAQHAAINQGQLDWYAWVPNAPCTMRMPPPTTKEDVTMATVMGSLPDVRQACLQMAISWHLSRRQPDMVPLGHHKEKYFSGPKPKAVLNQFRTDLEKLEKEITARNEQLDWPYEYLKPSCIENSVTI
# About 6,100 (1.1%) of roughly 580,000 compounds were called active. Inconclusive means that the source gave no clear call. Such entries were picked first, then a sample of the others. Calls follow the shape of the dose curve; as a rule, active = well fitted inhibition curve with a large enough effect; inconclusive = small, poorly fitted or top-dose-only effect, or another doubt; inactive = no such curve, though single readings can be large or run the other way. Where the call is inconclusive, the potency comes from a doubtful curve fit.
# Target: Polyunsaturated fatty acid lipoxygenase ALOX12 (Homo sapiens) (UniProt P18054)
# Assay: Primary qHTS assay for inhibitors of human arachidonate 12S-lipoxygenase (ALOX12): Round 2
# Settings: purified 12hLO, xylenol orange hydroperoxide absorbance; activity change, negative = inhibition: at 108 µM (top of the series) unless noted
# How it was run: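 Purified human 12hLO at 150 nM in 25 mM Hepes, 0.01% Triton X-100, pH 7.0, preincubated 15 min at room temperature with compound. Reaction started with 40 uM arachidonic acid, 30 min at room temperature. Hydroperoxide measured by Fe-xylenol orange, 573/405 nm absorbance ratio.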
# % is scaled to controls: 0 for no effect and ±100 for the full control effect; potency is read from the fitted curve at half-maximal effect.
Structure (SMILES),Potency,"activity change, negative = inhibition"
O=C(CN1C(=O)NC2(CCCCCC2)C1=O)N1CCCCC1,"inconclusive: 112 µM [inhibitor, single point]",
CCCOC(=O)c1ccc(NC(=O)COC)cc1,"inconclusive: 126 µM [inhibitor, single point]",
COCc1cc(=O)n2[nH]c(N)nc2n1,inactive,
CC(=O)Nc1ccc(S(=O)(=O)NCC(=O)N2CCN(S(=O)(=O)c3cccs3)CC2)cc1,inactive,
COc1ccc2ccccc2c1/C=N/NC(=O)c1ccc([N+](=O)[O-])cc1,inactive,
CCC(=O)Nc1sc2c(c1C#N)CCC(C(C)(C)C)C2 (stereo unspecified),inactive,
CCOc1ccc(C2/C(=C(\O)c3ccc4c(c3)OCCO4)C(=O)C(=O)N2CCCN2CCOCC2)cc1 (stereo unspecified),inactive,
COC(=O)C1=CN(C(C)C)C=C(C(=O)OC)C1c1cc(Br)c(OC)c(OC)c1,inactive,
COC(=O)c1sc(-c2ccc(C(C)(C)C)cc2)cc1NC(=O)CSCC(=O)O,"inconclusive: 50.1 µM [inhibitor, partial curve, poor fit]",
COc1ccc(CN2CC3(C2)C(=O)N(Cc2cccc(Cl)c2)C(=O)[C@@H]2C[C@@H](O)CN23)c2ccccc12,"inconclusive: 35.5 µM [inhibitor, full curve]",
CN(C)C(=O)N1CCC2(CC1)CN(C(=O)CCc1c[nH]c3ccccc13)Cc1ccccc1O2,,inactive: 6.6% [at 6.33 µM]
O=S1(=O)CCN(Cc2cccc(C(F)(F)F)c2)CC1,inactive,
O=C(c1ccc(F)cc1)N1CCC(c2nn(-c3ccc(Cl)cc3)c(=O)[nH]2)CC1,active: 35.5 µM,
CCOc1ccccc1C1NC(=O)N(CC(=O)Nc2cc(C)ccc2OC)C2=C1C(=O)OC2 (stereo unspecified),"inconclusive: 17.8 µM [inhibitor, full curve, poor fit]",
CCCCCCCCCCS(=O)(=O)N/N=C/c1ccccc1OC,inactive,
COc1ccc(Nc2cc3c(cn2)CN(C)CCN3)cc1OC,inactive,
N#Cc1cccc(CN2CCc3c(n(Cc4cccnc4)n(CCc4ccccc4)c3=O)C2)c1,inactive,
Cn1nc(C(=O)Oc2cccc(Cl)c2Cl)c2ccccc2c1=O,"inconclusive: 25.1 µM [inhibitor, partial curve, poor fit]",
Cc1oc(-c2cccc(Br)c2)nc1CN1CCC(C(=O)NCCc2ccc(Cl)cc2)CC1,inactive,
Cc1cccc(C)c1NC(=O)C(C)Sc1ccc2c(c1)OCCCO2 (stereo unspecified),inactive,
CCCCN1C(=O)C(=O)N(CC(=O)Nc2sc(CC)cc2C(=O)OCC)C1=O,inactive,
CC(=O)CSc1ncnc2sc3c(c12)CCCC3,"inconclusive: 39.8 µM [inhibitor, partial curve, poor fit]",
Cc1cc(C)c2oc(=O)cc(CN3CCN(c4ccccn4)CC3)c2c1,"inconclusive: 100 µM [inhibitor, single point]",
COc1ccc(NC(=O)c2cccc3c(-c4cnn(C)c4)coc23)cc1,"inconclusive: 39.8 µM [inhibitor, partial curve]",

# By substructure, the compounds so far with a cyano group (2)
Structure (SMILES),Potency,"activity change, negative = inhibition"
CCC(=O)Nc1sc2c(c1C#N)CCC(C(C)(C)C)C2 (stereo unspecified),inactive,
N#Cc1cccc(CN2CCc3c(n(Cc4cccnc4)n(CCc4ccccc4)c3=O)C2)c1,inactive,

# Quoted at random: three compounds from above
Structure (SMILES),Potency,"activity change, negative = inhibition"
CCCCCCCCCCS(=O)(=O)N/N=C/c1ccccc1OC,inactive,
CN(C)C(=O)N1CCC2(CC1)CN(C(=O)CCc1c[nH]c3ccccc13)Cc1ccccc1O2,,inactive: 6.6% [at 6.33 µM]
CCCCN1C(=O)C(=O)N(CC(=O)Nc2sc(CC)cc2C(=O)OCC)C1=O,inactive,

# Continuation:

Structure (SMILES),Potency,"activity change, negative = inhibition"
COc1ccc2c(=O)c(Oc3ccccc3Br)c(C)oc2c1,"inconclusive: 158 µM [inhibitor, partial curve, poor fit]",
Oc1ccc(CN2CC(CNc3ccccc3)C3(C2)CN(c2ccccc2)C3)cc1 (stereo unspecified),active: 63.1 µM,
CC(C)CNC(=O)CCSc1nc(-c2ccc3c(c2)OCO3)cc(C(F)(F)F)n1,inactive,
CC1C(c2ccccc2)=[N+]([O-])C(C)(c2ccc(Cl)cc2)N1O (stereo unspecified),inactive,
OC(CNCCc1ccc(Cl)cc1)COCc1ccco1 (stereo unspecified),"inconclusive: 1.12 µM [inhibitor, full curve, poor fit]",
O=C(NNc1ccccc1)c1ccc(Cl)c(Cl)c1,"inconclusive: 44.7 µM [inhibitor, partial curve, poor fit]",
Cc1ccc(C(=O)CS(=O)(=O)c2ccc(C)cc2)cc1,inactive,
O=C(CCN1C(=O)C2C3C=CC(C3)C2C1=O)N1CCN(c2ccc([N+](=O)[O-])cc2)CC1 (stereo unspecified),inactive,
Cc1cccc(NC(=O)C2CCCN(c3cnccn3)C2)c1 (stereo unspecified),inactive,
CCOC(=O)c1c(NC(=O)C(=O)NCc2ccco2)sc2c1CC(C)(C)OC2,inactive,
Cc1ccc(CNC(=S)NC2CCCCC2)cc1,"inconclusive: 44.7 µM [inhibitor, partial curve, poor fit]",
CC1CC(C)CN(S(=O)(=O)CCNC(=O)c2ccc3c(c2)OCO3)C1 (stereo unspecified),"inconclusive: 100 µM [inhibitor, single point]",
O=C1CCCN1CCCNCC(=O)N1c2ccccc2Sc2ccccc21,inactive,
Cc1cc(NC(=O)CSc2nnc(Cc3ccccc3)n2C)no1,"inconclusive: 56.2 µM [inhibitor, partial curve, poor fit]",
O=C(c1ccoc1)N1CCc2nn(Cc3ccccc3)c(=O)n2CC1,inactive,
COc1ccc(C(=S)N2CCN(C)CC2)cc1,"inconclusive: 39.8 µM [inhibitor, partial curve, poor fit]",
COc1ccc(CNC(=O)[C@@H]2CCCN2C(=O)[C@@H]2Cc3ccccc3CN2C(=O)OC(C)(C)C)cc1,inactive,
CC(C)NC(=O)N[C@H]1CCN2C(=O)c3cc(-c4cccc(C(F)(F)F)c4)ccc3NC(=O)[C@H]12,"inconclusive: 50.1 µM [inhibitor, partial curve]",
Cc1nc(N2CCN(Cc3ccc4c(c3)OCO4)CC2)c2oc3ccccc3c2n1,"inconclusive: 25.1 µM [inhibitor, partial curve, poor fit]",
COc1ccc2[nH]c(C)c(CCNC(=S)Nc3cccc(C)c3C)c2c1,"inconclusive: 35.5 µM [inhibitor, single point]",
CCN1/C(=C2\C(=O)N(C)C(=S)N2C)C=Cc2ccccc21,inactive,
COc1ccc(CN2C(=O)CO[C@H](c3ccc(NC(=O)c4ccc(OC)cc4)cc3)[C@H]2CO)cc1,"inconclusive: 89.1 µM [inhibitor, partial curve, poor fit]",
O=C1NC[C@H](CCCCN2C[C@H](Cc3ccc(O)cc3)N(CC3CCCCC3)C(=O)C2=O)N(Cc2ccccc2)C1=O,"inconclusive: 79.4 µM [inhibitor, partial curve, poor fit]",
C/C(CCc1oc2ccc(Br)cc2c1-c1ccc(C)o1)=N/O,"inconclusive: 50.1 µM [inhibitor, partial curve, poor fit]",

Structure (SMILES),Potency,"activity change, negative = inhibition"
CC1(C)CCc2cc3c4c(/c(=N\O)oc3cc2O1)CCCC4,"inconclusive: 25.1 µM [inhibitor, partial curve]",
CCCN(C)C(=O)c1nn(CCC)c(=O)c2ccccc12,"inconclusive: 100 µM [inhibitor, single point]",
CCC(c1nnnn1Cc1ccc(F)cc1)N(CCCO)Cc1cc2cc3c(cc2[nH]c1=O)OCO3 (stereo unspecified),"inconclusive: 28.2 µM [inhibitor, partial curve, poor fit]",
O=C(CCC1CCN(C(=O)c2cc(C3CC3)[nH]n2)CC1)N1CCC(Cc2ccccc2)CC1,"inconclusive: 1.12 µM [inhibitor, full curve, poor fit]",
COC(=O)/C=C1/SC(=NC(=O)c2cccc([N+](=O)[O-])c2)NC1=O,"inconclusive: 44.7 µM [inhibitor, partial curve, poor fit]",
O=C(/C=C/Nc1ccc(Oc2ccccc2)cc1)c1ccc(Br)cc1,"inconclusive: 35.5 µM [inhibitor, partial curve, poor fit]",
CCc1cc(N(C)Cc2noc(C3CC3)n2)n2nc(C)c(C)c2n1,inactive,
C/C(=N\NS(=O)(=O)c1ccc(Br)cc1)c1ccc(-n2ccnc2)cc1,"inconclusive: 100 µM [inhibitor, single point]",
O=C(COC(=O)c1cc2ccccc2[nH]1)c1ccc2ccccc2c1,,inconclusive: -36.5% [inhibitor]
COc1ccc(NC(=S)NC(C)Cc2cccs2)cc1 (stereo unspecified),"inconclusive: 50.1 µM [inhibitor, partial curve, poor fit]",
CCc1ccc(Nc2n[n+](-c3ccccc3)c(-c3cccc(C)c3)s2)cc1,"inconclusive: 50.1 µM [inhibitor, partial curve, poor fit]",
COc1cc(C)ccc1O,"inconclusive: 79.4 µM [inhibitor, single point]",
COc1cccc(C2C(C#N)=C(N)OC3=C2C(=O)CC(c2ccco2)C3)c1OCc1ccc(F)cc1 (stereo unspecified),"inconclusive: 10 µM [inhibitor, partial curve, poor fit]",
Clc1ccc2nc(-c3cccc(Br)c3)c(Cc3ccsc3)n2c1,"inconclusive: 44.7 µM [inhibitor, partial curve, poor fit]",
COc1ccc(C(C(=O)NC2CCCCC2)n2c(=O)c(-c3ccco3)nc3ccccc32)cc1 (stereo unspecified),"inconclusive: 39.8 µM [inhibitor, partial curve]",
Cc1ccccc1NC(=O)c1cc(N)ccc1N1CCCCC1,inactive,
O=C(Cc1cccc(NC(=O)C2CCCN(C(=O)CCc3ccccc3)C2)c1)Nc1cccc(C(=O)N2CCCCC2)c1 (stereo unspecified),inactive,
Cc1cc(C(=O)N2CCCCCCNC(=O)[C@@H]3CCCC[C@@H]32)nn1C,inactive,
C=CCNc1ccc2c(c1)OC[C@@H](CC(C)C)NS2(=O)=O,inactive,
CC(C)NC(=O)N1CCC2(CC1)CN(C(=O)Cc1cccc(O)c1)Cc1ccccc1O2,,inactive: 0.56% [at 6.33 µM]
COc1ccc(CCNc2nc(-c3sc(N)nc3C)cs2)cc1OC,inactive,
COc1cc(-c2ccnc3nc(Cc4ccc(F)cc4)nn23)cc(OC)c1OC,inactive,
CCOc1ccc(N2CSC3=C(C#N)C(c4ccco4)CC(=O)N3C2)cc1 (stereo unspecified),"inconclusive: 1.26 µM [inhibitor, full curve, poor fit]",
